These are yes or no findings as the source states them, for the method shown. In cells and extracts the contact can be indirect. Some entries that bind do so weakly or less than the wild type.
Molecular target: T1, biotinylated peptide comprising residues 45 to 51 of vasoinhibin (B-Vi45-51) (UniProt P01236)
T1 sequence (peptide, biotin (position not stated)): THGRGFI
Test: pull-down; HUVECs treated with 500 nM B-Vi45-51, 20 ng/mL bFGF and 25 ng/mL VEGF for 1 h, lysed in RIPA, sonicated, 30 min at 37 °C, pulled down with Dynabeads Streptavidin T1; Western blot for integrin α5, PAI-1 and uPAR; only the target purified

Protein sequences, listed by entry. Tags and fused reporters are not part of them. Lines headed by an entry give the natural chain unless they say otherwise; changes in a name come on top. Residues count along the entry.
UniProt P08648: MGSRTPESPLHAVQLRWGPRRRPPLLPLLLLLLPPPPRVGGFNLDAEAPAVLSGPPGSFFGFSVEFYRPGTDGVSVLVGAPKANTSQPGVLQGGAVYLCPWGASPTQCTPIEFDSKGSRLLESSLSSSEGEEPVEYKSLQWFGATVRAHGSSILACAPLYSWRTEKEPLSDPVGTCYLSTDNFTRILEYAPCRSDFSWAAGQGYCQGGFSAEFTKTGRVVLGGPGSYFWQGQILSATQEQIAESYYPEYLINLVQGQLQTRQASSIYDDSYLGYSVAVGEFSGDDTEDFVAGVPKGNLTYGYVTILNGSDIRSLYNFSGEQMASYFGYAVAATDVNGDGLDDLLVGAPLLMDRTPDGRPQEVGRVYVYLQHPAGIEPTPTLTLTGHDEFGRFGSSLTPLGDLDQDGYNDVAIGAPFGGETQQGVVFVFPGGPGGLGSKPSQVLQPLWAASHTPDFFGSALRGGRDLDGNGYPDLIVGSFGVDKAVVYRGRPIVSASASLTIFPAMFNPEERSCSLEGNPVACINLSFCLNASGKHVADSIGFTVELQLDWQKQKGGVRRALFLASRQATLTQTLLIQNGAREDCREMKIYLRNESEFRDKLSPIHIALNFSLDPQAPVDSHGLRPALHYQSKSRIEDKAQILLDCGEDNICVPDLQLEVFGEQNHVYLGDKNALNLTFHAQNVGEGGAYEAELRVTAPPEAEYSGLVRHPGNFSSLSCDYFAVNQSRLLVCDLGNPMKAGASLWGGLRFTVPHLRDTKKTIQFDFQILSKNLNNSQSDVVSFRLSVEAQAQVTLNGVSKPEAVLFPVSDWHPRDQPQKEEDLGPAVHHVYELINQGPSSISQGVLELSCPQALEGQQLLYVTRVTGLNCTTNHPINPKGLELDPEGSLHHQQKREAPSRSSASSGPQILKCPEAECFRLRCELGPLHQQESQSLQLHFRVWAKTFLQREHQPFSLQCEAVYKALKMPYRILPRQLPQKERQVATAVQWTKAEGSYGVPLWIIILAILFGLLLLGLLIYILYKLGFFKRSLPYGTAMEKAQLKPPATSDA
UniProt Q03405, residues 23-305: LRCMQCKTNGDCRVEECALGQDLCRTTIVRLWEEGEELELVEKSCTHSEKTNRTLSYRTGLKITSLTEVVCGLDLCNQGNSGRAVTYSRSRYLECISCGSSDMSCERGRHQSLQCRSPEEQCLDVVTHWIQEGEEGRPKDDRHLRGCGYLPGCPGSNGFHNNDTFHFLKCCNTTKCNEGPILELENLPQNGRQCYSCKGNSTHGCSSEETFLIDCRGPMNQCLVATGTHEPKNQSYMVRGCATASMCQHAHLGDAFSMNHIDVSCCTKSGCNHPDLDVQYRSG

| Substance | binding |
| --- | --- |
| integrin α5β1, endogenous in HUVECs (detected by blot of integrin α5, ∼145 kDa) (from UniProt P08648 42-1049; P05556 21-798) (receptor) | binds |
| urokinase-type plasminogen activator receptor (uPAR), endogenous in HUVECs (from UniProt Q03405 23-305) | no binding (tested: 500 nM B-Vi45-51) |
